{"sequences": {"note": "By UniProt entry, the sequences of proteins in these tests, tags left out. Where a name states a change or a piece, a line headed by the entry shows the natural chain unless it says otherwise. Chains listed by the source or under a name are the forms on record and can include a tag or linker.", "Neurofibromin (NF1), full length, isoform 1 (P21359-2, form named)": "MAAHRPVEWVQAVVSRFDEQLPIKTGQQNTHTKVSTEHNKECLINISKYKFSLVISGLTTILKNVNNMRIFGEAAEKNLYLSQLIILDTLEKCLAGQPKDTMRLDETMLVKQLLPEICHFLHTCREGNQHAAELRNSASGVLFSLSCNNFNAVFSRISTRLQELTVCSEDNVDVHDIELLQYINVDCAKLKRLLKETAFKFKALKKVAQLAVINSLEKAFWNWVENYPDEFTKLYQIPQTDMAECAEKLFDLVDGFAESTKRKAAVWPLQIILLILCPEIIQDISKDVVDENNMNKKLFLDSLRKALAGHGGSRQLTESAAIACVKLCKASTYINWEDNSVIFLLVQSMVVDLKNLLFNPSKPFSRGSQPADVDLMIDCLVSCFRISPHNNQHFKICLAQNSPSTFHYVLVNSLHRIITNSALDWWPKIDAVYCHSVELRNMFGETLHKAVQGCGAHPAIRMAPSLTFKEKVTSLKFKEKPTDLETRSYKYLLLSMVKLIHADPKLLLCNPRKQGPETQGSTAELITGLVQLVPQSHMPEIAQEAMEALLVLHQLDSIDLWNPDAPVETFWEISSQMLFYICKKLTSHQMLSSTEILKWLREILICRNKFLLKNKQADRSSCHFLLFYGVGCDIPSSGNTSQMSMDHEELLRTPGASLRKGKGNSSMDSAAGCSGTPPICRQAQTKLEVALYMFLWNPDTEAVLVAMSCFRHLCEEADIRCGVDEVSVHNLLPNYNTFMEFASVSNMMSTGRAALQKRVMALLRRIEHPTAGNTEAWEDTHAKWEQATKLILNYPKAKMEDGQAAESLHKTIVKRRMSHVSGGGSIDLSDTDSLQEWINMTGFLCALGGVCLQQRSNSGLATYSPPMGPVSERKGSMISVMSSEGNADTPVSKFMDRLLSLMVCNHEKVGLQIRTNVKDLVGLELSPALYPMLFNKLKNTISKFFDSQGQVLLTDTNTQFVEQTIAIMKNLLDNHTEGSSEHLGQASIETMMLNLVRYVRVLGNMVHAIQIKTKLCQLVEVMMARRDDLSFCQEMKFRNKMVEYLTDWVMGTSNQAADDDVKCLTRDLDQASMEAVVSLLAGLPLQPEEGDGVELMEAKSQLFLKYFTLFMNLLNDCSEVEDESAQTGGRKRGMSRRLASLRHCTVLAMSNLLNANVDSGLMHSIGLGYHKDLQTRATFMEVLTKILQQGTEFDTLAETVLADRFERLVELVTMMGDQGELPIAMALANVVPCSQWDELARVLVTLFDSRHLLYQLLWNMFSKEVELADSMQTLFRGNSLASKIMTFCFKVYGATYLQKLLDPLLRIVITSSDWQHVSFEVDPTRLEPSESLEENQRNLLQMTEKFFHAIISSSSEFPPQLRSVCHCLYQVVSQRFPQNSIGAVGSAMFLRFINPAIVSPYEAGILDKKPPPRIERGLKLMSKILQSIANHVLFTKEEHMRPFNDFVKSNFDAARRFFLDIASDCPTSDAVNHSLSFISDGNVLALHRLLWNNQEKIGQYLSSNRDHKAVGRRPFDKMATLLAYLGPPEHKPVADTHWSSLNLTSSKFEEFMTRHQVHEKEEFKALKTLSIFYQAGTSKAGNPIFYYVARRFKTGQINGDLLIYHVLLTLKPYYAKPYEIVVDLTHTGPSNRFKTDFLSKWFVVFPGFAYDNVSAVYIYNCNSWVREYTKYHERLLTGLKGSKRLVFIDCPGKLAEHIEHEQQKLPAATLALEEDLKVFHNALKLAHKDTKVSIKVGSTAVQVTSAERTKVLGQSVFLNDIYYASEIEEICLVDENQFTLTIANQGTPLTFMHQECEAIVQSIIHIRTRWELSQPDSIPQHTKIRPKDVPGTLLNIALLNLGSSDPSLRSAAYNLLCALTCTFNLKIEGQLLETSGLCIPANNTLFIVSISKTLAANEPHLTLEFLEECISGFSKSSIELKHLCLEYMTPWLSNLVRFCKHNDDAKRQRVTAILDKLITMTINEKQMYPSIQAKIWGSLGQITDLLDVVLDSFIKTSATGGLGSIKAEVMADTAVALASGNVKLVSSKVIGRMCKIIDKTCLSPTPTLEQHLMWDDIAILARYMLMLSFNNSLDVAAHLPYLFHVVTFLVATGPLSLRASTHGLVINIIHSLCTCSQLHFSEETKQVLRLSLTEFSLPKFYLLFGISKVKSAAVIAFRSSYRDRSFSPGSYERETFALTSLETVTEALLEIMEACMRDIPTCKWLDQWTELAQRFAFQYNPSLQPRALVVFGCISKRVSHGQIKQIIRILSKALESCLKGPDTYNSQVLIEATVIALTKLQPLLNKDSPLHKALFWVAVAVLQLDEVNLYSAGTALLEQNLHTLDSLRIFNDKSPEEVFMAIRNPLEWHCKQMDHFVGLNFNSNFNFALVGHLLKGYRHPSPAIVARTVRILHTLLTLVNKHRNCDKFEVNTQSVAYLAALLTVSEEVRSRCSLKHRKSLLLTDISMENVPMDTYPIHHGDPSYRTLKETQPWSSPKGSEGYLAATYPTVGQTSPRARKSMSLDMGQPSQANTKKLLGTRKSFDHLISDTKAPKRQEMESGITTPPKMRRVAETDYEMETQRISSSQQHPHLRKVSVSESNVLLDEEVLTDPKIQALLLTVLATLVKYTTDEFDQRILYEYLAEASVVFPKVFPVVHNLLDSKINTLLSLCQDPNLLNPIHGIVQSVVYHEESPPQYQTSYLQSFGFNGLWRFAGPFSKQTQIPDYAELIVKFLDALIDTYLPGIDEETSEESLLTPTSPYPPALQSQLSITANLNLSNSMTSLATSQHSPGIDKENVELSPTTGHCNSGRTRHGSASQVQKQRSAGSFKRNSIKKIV"}, "source": "paper doi:10.1101/2021.02.18.431788", "target": "Neurofibromin (NF1), full length, isoform 1 (human) (UniProt P21359)", "test": "cryo-EM structure", "note": "These are yes or no findings as the source states them, for the method shown. Some entries that bind do so weakly or less than the wild type."}
{"substance": "Neurofibromin (NF1), full length, isoform 1 (from UniProt P21359-2 1-2818)", "values": [{"measurement": "binding", "result": "binds"}]}
